Data taken from PubChem BioAssay AID1439 (NMMLSC, 2008).
Hit rate of the full screen: of about 220,000 compounds, about 770 (0.35%) were called active. The inconclusive results got no clear call from the source; some entries with a clear call stand among them for comparison. Cut-off read from the data, not from the text of the source: active = binding response below about 49% or above about 150%; inconclusive = no clear call, values can overlap the other calls; inactive = in between.

By UniProt entry, the sequences of proteins in these tests, tags left out.
UniProt P09471, whole entry, looked up: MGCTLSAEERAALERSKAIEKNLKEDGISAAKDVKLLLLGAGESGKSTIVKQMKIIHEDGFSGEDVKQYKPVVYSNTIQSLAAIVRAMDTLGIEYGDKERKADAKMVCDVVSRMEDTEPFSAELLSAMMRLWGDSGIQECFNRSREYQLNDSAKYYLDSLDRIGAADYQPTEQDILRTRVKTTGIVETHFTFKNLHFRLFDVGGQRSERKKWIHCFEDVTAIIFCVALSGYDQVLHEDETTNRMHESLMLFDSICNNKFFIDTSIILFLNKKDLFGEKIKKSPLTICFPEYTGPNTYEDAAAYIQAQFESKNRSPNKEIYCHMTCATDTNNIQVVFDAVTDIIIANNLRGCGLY

molecular target: Guanine nucleotide-binding protein G(o) subunit alpha (Homo sapiens) (UniProt P09471); assay: RGS7-Galphao binding modulators, primary screen, biochemical, multiplexed bead flow cytometry (AID 1439); conditions: at 10 µM, actives lie on both sides;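 note: fluorescent Galphao held in activated GDP-AlF4 state binding bead-coupled RGS7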

| SMILES | binding response (% of control) |
| --- | --- |
| CC(=O)NS(=O)(=O)c1ccc(NC(=O)c2ccc(-n3nc(C)cc3C)cc2)cc1 | inconclusive: 112% |
| O=C(CNCC1(N2CCOCC2)CCCCC1)Nc1ccc(Cl)cc1 | inconclusive: 86.2% |
| O=C(O)c1ccccc1Nc1ccnc(Cl)n1 | inconclusive: 112% |
| COc1ccc(/C=N/n2c(-c3cc(C)[nH]n3)n[nH]c2=S)cc1 | inconclusive: 159% |
| COc1cccc(/C=N/N=C(\N)c2nonc2N)c1O | inconclusive: 85.9% |
| Cc1ccc(-c2c[n+](CC(=O)OCc3ccccc3)c3n2CCC3)cc1 | active: 9.52% |
| Cc1nnc(SCC(=O)N2CCc3ccccc32)s1 | inactive: 99.5% |
| Cc1[nH]n(C(N)=S)c(=O)c1N=Nc1cc(-c2ccc(Br)cc2)[nH]n1 | inconclusive: 109% |
| COc1ccccc1N1CCN(S(=O)(=O)c2ccc3c4c(cccc24)C(=O)N3)CC1 | inactive: 114% |
| N#C/C(=C\c1ccncc1)c1nc2ccccc2[nH]1 | inconclusive: 111% |
| CCc1ccc(-c2nnn(CCC#N)n2)cc1 | inconclusive: 94.5% |
| C/C(=N\NC(=O)C(N)=O)c1cccc(C(F)(F)F)c1 | inconclusive: 113% |
| CCCCn1c(N)c(NCC)c(=O)[nH]c1=O | inconclusive: 92.1% |
| COc1ccc(CCNC(=O)COC(=O)/C=C/c2cc(OC)c(OC)c(OC)c2)cc1OC | inactive: 102% |
| COC(=O)c1cn(NC(=O)Cc2ccccc2Br)c(=O)c2ccccc12 | inactive: 94.8% |
| O=C(c1ccco1)N1CCN(Cc2cn[nH]c2-c2cccc3ccccc23)CC1 | inconclusive: 181% |
| CC(C)[C@H]1CN=C2N(CCNC(=O)CCC3CCCCC3)[C@H](Cc3ccc(O)cc3)CN21 | inactive: 110% |
| Cc1cccc(NCC(=O)N/N=C\c2ccc[nH]2)c1 | inconclusive: 97.5% |
| Cc1nonc1CC(=O)N1CCCC(C(=O)c2ccc(Cl)cc2)C1 (stereo unspecified) | inactive: 101% |
| CC(C)(CN1CCN(C(c2ccccc2)c2ccccc2)CC1)NS(=O)(=O)c1ccccc1 | inconclusive: 100% |
| Cc1cc(Oc2ccc(C#N)cc2)nc(N2CCOCC2)n1 | active: 43.4% |
| CN(CCc1ccccn1)C(=O)CCC1CCCN(C(=O)c2c3c(nn2C)CCCC3)C1 (stereo unspecified) | inactive: 98.6% |
| CC(C)S(=O)(=O)N1CCN(c2ccnc3cc(Cl)ccc23)CC1 | inconclusive: 83.5% |

Quoted at random: 2 entries already listed.

| SMILES | binding response (% of control) |
| --- | --- |
| COc1cccc(/C=N/N=C(\N)c2nonc2N)c1O | inconclusive: 85.9% |
| Cc1cccc(NCC(=O)N/N=C\c2ccc[nH]2)c1 | inconclusive: 97.5% |

3 structures from above, ordered by SMILES length, largest number first:

| SMILES | binding response (% of control) |
| --- | --- |
| CN(CCc1ccccn1)C(=O)CCC1CCCN(C(=O)c2c3c(nn2C)CCCC3)C1 (stereo unspecified) | inactive: 98.6% |
| COC(=O)c1cn(NC(=O)Cc2ccccc2Br)c(=O)c2ccccc12 | inactive: 94.8% |
| O=C(CNCC1(N2CCOCC2)CCCCC1)Nc1ccc(Cl)cc1 | inconclusive: 86.2% |

Going on with the list:

| SMILES | binding response (% of control) |
| --- | --- |
| CCOc1ccc(-c2nnc(-c3ccco3)o2)cc1OCC | inactive: 94.7% |
| CN(C(=O)c1cccc(C#N)c1)c1nnc(-c2cnccn2)s1 | inactive: 96.1% |
| C/C(=N\NC(=S)Nc1ccccc1C)c1cc2ccccc2o1 | inconclusive: 123% |
| CCOP(=O)(OCC)/C(C#N)=C/c1ccc([N+](=O)[O-])cc1 | inconclusive: 98.3% |
| CC(C)OC(=O)Nc1ccc2c(c1)N(C(=O)N1CCN(C)CC1)c1ccccc1CC2 | inconclusive: 102% |
| CCCSc1sc(C(=O)OC)c(-c2cccs2)c1C#N | inconclusive: 285% |
| Cc1ccc2c(c1)C(=C(C#N)C#N)C(=O)N2CCN1CCOCC1 | inconclusive: 86.5% |
| CC1(C)CC2(CC(c3ccc(F)cc3)c3ccc(O)cc3O2)NC(=S)N1 (stereo unspecified) | inconclusive: 98.1% |
| COc1ccc(C(=O)N/N=C(\CCC(=O)O)c2ccc(C(C)(C)C)cc2)cc1OC | inconclusive: 127% |
| Cc1ccc(NC(=O)Cn2c(O)c(N=NC(=O)c3cc([N+](=O)[O-])ccc3O)c3ccccc32)cc1 | inconclusive: 112% |
| CC(C)Oc1ccc(CNCCC2(C(C)C)CCOC(C)(C)C2)cc1 (stereo unspecified) | inactive: 100% |
| O=c1cc(CN2CC(O)Cc3ccc4ccccc4c32)nc2sccn12 (stereo unspecified) | inconclusive: 92.4% |
| Cc1cc(C)cc(NC(=O)N2CCCN(c3c(Cl)cncc3Cl)CC2)c1 | inconclusive: 115% |
| CCOC(=O)c1c(CC(C)C)csc1/N=C/C1C(=O)CCCC1=O | inconclusive: 81.8% |
| COCCCNc1nc(N)c([N+](=O)[O-])c(Nc2ccccc2OC)n1 | inconclusive: 108% |
| COc1cc(NC(=S)NC(C)(C)C)c(OC)cc1Cl | inconclusive: 99.6% |
| COC(=O)c1c(C)nn(-c2ccc(F)c(Cl)c2)c1-c1cc(C)on1 | inconclusive: 118% |
| CCOC(=O)C1=C(CN2CCSCC2)NC(=O)NC1c1cccc([N+](=O)[O-])c1 (stereo unspecified) | inconclusive: 130% |
| COC(=O)CC1C(=O)NCCN1C(=O)CSc1nnc(Nc2ccc(C)cc2)s1 (stereo unspecified) | inactive: 106% |
| COc1ccccc1-c1cc2nc(C)cc(C)n2n1 | inconclusive: 90.1% |
| O=C(CSc1nnc(COc2ccc(Cl)cc2)o1)N1CCOCC1 | inconclusive: 107% |
| C/C=C\C(=O)Nc1cccc(C2=NOC3(C2)C[C@@H](C(N)=O)N(C(=O)c2ccc(OC)cc2)C3)c1 (stereo partly specified) | inconclusive: 95.5% |
| CCNC(=S)NCc1ccc(OC)c(OC)c1 | inconclusive: 85.8% |

| SMILES | binding response (% of control) |
| --- | --- |
| O=C(c1cc2c(ccc3ccccc32)o1)N1CCN(c2ncc(C(F)(F)F)cc2Cl)CC1 | inactive: 99.7% |
| CC(C)=CCN1CCN(Cc2nc(-c3ccc(F)cc3)cs2)CC1CCO (stereo unspecified) | inconclusive: -4.76% |
| CCCCCCN(C(=O)CCl)c1ccccc1 | inconclusive: 74.7% |
| COc1ccc(-c2cc(N)n(S(=O)(=O)c3ccc(F)cc3)n2)cc1OC | inactive: 100% |
| C/C=C/C(=O)N1CC2(CC(c3cccc(NC(=O)CC(c4ccccc4)c4ccccc4)c3)=NO2)C[C@H]1C(N)=O (stereo partly specified) | inconclusive: 99.9% |
| COc1ccccc1C1CCN(C(=O)c2ccco2)CC1 | inconclusive: 84.2% |
| CC(C)N(C1=CC(=O)OC12CCCCC2)C(C)C | inconclusive: 107% |
| COc1ccccc1C(=O)Nc1ccc(S(=O)(=O)N2CCCCC2c2cccnc2)cc1 (stereo unspecified) | inconclusive: 62% |
| O=C(NCc1ccco1)C(=S)N1CCCCC1 | inconclusive: 102% |
| O=C(Cn1c2[n+](c3ccc(C(F)(F)F)cc31)CCCCC2)c1ccc2c(c1)OCCO2 | inconclusive: 74% |
| CC1Cc2ccccc2N1S(=O)(=O)c1cnc(Cl)c(Cl)c1 (stereo unspecified) | inconclusive: 75.8% |
| O=C(CSCc1ccccc1)Nc1ccccc1C(=O)Nc1ccc(C(=O)O)cc1 | inconclusive: 11.3% |
| COc1cc2nc(NC(=O)c3ccco3)sc(=O)c2cc1OC | inconclusive: 112% |
| Cc1ccc(OCc2nnc(SCC(=O)Nc3ccc4c(c3)OCO4)n2C)cc1 | inactive: 97.8% |
| COc1ccc(-c2nnc(SC)o2)c(OC)c1 | inconclusive: 87.1% |
| CCOC(=O)C1=C(C)NC(SC)=NC1c1ccc(OC)cc1 (stereo unspecified) | inactive: 106% |
| Cn1cccc1C(=O)OCC(=O)N1c2ccccc2NC(=O)C1(C)C | inconclusive: 115% |
| CN1CCCC(OC(=O)c2ccc(Cl)cc2)C1 (stereo unspecified) | inconclusive: 90.6% |
| COc1ccc(NC(=O)COC(=O)CNS(=O)(=O)c2ccc(F)c(F)c2F)cc1OC | inactive: 109% |
| CC(C)=CCN1CCN(Cc2cccn2-c2ncccn2)CC1CCO (stereo unspecified) | inconclusive: 113% |
| Cc1ccc(N=Cc2nc(-c3ccc(C)cc3)oc2O)cc1 | inactive: 108% |
| COc1cc(NS(=O)(=O)c2ccc(N)cc2)ncn1 | inconclusive: 96.3% |
| O=C(O)/C=C/C(=O)Nc1ccc(SC(F)(F)C(F)(F)C(F)(F)F)cc1 | inconclusive: 102% |

| SMILES | binding response (% of control) |
| --- | --- |
| Cc1ccccc1OCC(=O)N(CC(C)C)c1c(N)n(CC(C)C)c(=O)[nH]c1=O | inconclusive: 91.6% |
| CCOc1cc(C(=O)Nc2ccccc2N2CCOCC2)ccc1OCC(=O)N1CCCCC1 | inconclusive: 111% |
| Cc1cc(OCC(=O)NC(C)c2ccccc2)ccc1[N+](=O)[O-] (stereo unspecified) | inactive: 94.9% |
| COc1cc2c(cc1OC)CN(C(=O)c1cccc([N+](=O)[O-])c1)CC2 | inconclusive: 92.3% |
| COc1ccccc1OCCC(=O)OCC(=O)NCc1ccc(Cl)cc1 | inconclusive: 101% |
| CCN(CC)c1cc(C)c2cc(NC(=O)c3ccc(Br)o3)ccc2n1 | inactive: 101% |
| Cc1cc(-c2nnc(CCC(=O)N3CCN(Cc4cccnc4)CC3)o2)c(C)o1 | inactive: 103% |
| Cc1ccc(NC(=S)NNC(=S)Nc2cccc(C(F)(F)F)c2)cc1 | inconclusive: 80.7% |
| CC1CC(=O)NN=C1c1cccs1 (stereo unspecified) | inconclusive: 74.6% |
| O=C(N/N=C/c1ccc[nH]1)c1ccc2c(c1)OCO2 | inconclusive: 112% |
| O=C(COC(=O)CC1CC2CCC1C2)Nc1cc([N+](=O)[O-])ccc1F (stereo unspecified) | inconclusive: 105% |
| COc1ccc(CNC(=O)CN(C2CCCCC2)S(C)(=O)=O)cc1 | inactive: 96.7% |
| COCCSc1ncnc2c1oc1nc3c(cc12)COC(C)(C)C3 | inconclusive: 160% |
| CCCCN1C(C)=CC(=C2C(=O)c3ccccc3C2=O)C=C1C | inconclusive: 96.8% |
| CCNCc1ccc(OCc2ccccc2F)c(OC)c1 | inconclusive: 100% |
| O=C(NCCCN1CCCC1=O)c1cc2c(s1)CCCCC2 | inconclusive: -65.5% |
| CCc1nnc(NS(=O)(=O)c2ccc(NC(=O)c3ccccc3)cc2)s1 | inconclusive: 110% |
| Nc1c(C(=O)Nc2ccc(F)cc2)sc(=S)n1-c1ccccc1F | inactive: 98.1% |
| CC(=O)c1c(C)n(CC(=O)NCc2ccco2)c2ccccc12 | inconclusive: 91% |
| O=S(=O)(c1ccc(-c2ccccn2)s1)N1CCC2(CC1)OCCO2 | inconclusive: 92% |
| COc1ccc(-c2ccc([C@H]3[C@H]4C=CC[C@@H](C)[C@@H]4C(=O)N3Cc3ccccc3)c(F)c2)cc1 | inconclusive: 117% |
| Cn1cc(C(F)(F)F)nc1-c1ccc(OCC(O)CNCCOc2ccc(O)c(C(N)=O)c2)cc1 (stereo unspecified) | inconclusive: 99% |
